# ± gives the standard deviation. This is a selection; strong and weak results do not stand in their true shares. Many entries were measured with a wide error.
# Test system: MILI (PIWIL2) piRISC loaded with L1MC piRNA (26 nt)
# Assay: pre-steady-state target cleavage rate (min^-1); MIWI and MILI are mouse PIWI proteins and EfPiwi is from a freshwater sponge; tags in brackets are library labels; higher = faster piRNA-guided slicing of the target
# Details: guide: L1MC piRNA 5'p-UAACUAAAUACUAUGCAAGCUGUAGG; auxiliary factor: 500 nM mouse GTSF1
# Procedure: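 Cleave-'n-Seq: a library of target RNAs (target site embedded in constant flanks, ACAGCATTCCGCGTTAGTGATATCCG... 5' flank; DNA-blocked outside the site) at 0.1 nM was incubated with 1 nM active mouse MILI or MIWI piRISC (synthetic 5'-monophosphorylated piRNA guide) with or without 500 nM mouse GTSF1 at 33 °C for 1 min to 16 h. Uncleaved targets were sequenced and normalised to non-target controls, and the pooled three trials were fitted to a burst-and-steady-state model to give the pre-steady-state cleavage rate (min^-1; k3 is constrained to at most 1e-4). Sequence is the target site only; target names encode pairing extent (gX:gY) and contiguous / 1-mismatch / 2-mismatch / bulge geometry. Fits with R² ≤ 0 are excluded.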
row,Sequence,pre-steady-state target cleavage rate
1,UCCUGGAUGUCGUGCAUAGUAUUUAGUUA,0.115 ± 0.014
2,UCCUGCUACAGCUUGGAUAGAAUUUAGUUA,0.0646 ± 0.014
3,UCCUGCUACAGCUUGCAUAAUAUUUAGUUA,0.363 ± 0.034
4,UCCUGGAACAGCUUGCAUACUUUUUAGUUA,0.000911 ± 0.014
5,UCCUGCUACAGCUUGCAUAGUAUAUUGUUA,0.187 ± 0.036
6,UCCUGGAUGUCGUUGCUAGUAUUUAGUUA,0.00138 ± 0.0058
7,UCCUGGAUGUCGAUGCAUAGAUUUAGUUA,0.00137 ± 0.0055
8,UCCUGGAUGUCGAUGCAUAGUAUUUAGAAA,0.0516 ± 0.015
9,UCCUGGAUGUCGAUGCAUAUGUAUUUAGUUA,0.00101 ± 0.0093
10,UCCUGGUACAGCAUGCAUAGUUUUUAGUUA,0.038 ± 0.015
11,UCCUGGUACAGCAAGCAUAGUAUUUAGUUA,0.232 ± 0.018
12,UCCUGCAACACCUUGCAUAGUAUUUAGUUA,0.192 ± 0.026
13,UCCUGGUACUGCUUGCAUAGUAUUUAGUAA,0.0986 ± 0.018

# Same assay, conditions: guide: L1MC piRNA 5'p-UAACUAAAUACUAUGCAAGCUGUAGG; auxiliary factor: none (no GTSF1)
row,Sequence,pre-steady-state target cleavage rate
1,UCCUGGAUGUCGUGCAUAGUAUUUAGUUA,0.00386 ± 0.0022
2,UCCUGCUACAGCUUGGAUAGAAUUUAGUUA,0.0016 ± 0.004
3,UCCUGGAACAGCUUGCAUACUUUUUAGUUA,0.002 ± 0.0031
4,UCCUGCUACAGCUUGCAUAGUAUAUUGUUA,0.00238 ± 0.0039
5,UCCUGGUACAGCUUGCAUAGUAAUUAGAAA,0.00129 ± 0.0049
6,UCCUGGAUGUCGAACGAUAGUUUUAAGUUA,< 0.0001
7,UCCUGGAUGUGCUUGCAUAGUAUUUUGUAA,0.000851 ± 0.0087
8,UCCUGGAUGAGCUUGCAUAGUAUUUACAUA,0.00121 ± 0.0049
9,UCCUGCUACACGUUGCAUAGUAUUUUCAAA,0.000689 ± 0.011
10,UCCUGGAACAGCUUGCAUAGUAUUUAUUA,0.00131 ± 0.0054
11,UCCUGGAUGUCGUUGCUAGUAUUUAGUUA,0.00131 ± 0.0043
12,UCCUGGAUGUGCUUGCAUAGUAAAUAGAAA,0.000468 ± 0.014
13,UCCUGGAUGAGCUUGCAUAGUUUUAAGUUA,0.00247 ± 0.0029
14,UCCUGGAUCAGCUACGAUAGUAUUUACAAA,0.000187 ± 0.025
15,UCCUGGAUGUCGAAGCAUCGUAUUUAGUUA,0.00172 ± 0.0035
16,UCCUGGAUGUCGAUGCAUAGAUUUAGUUA,0.000668 ± 0.0061
17,UCCUGGAUGUCGAUGCAUAGUAUUUAGAAA,0.00104 ± 0.0058
18,UCCUGGAUGUCGAUGCAUAUGUAUUUAGUUA,0.000662 ± 0.01
19,UCCUGGAUCAGCUUGCAUAUAUUUAGUUA,0.00151 ± 0.0048
20,UCCUGGAUCAGCUUGCAUAGUAUUUUGUAA,0.00207 ± 0.0032
21,UCCUGCUACAGCUUGCAUAGUAUAAUGUUA,0.00224 ± 0.0033
22,UCCUGGUACAGCAUGCAUAGUUUUUAGUUA,0.00749 ± 0.0033
23,UCCUGGUACAGCAAGCAUAGUAUUUAGUUA,0.00852 ± 0.0027
24,UCCUGCAACACCUUGCAUAGUAUUUAGUUA,0.00568 ± 0.0027
25,UCCUGGUACUGCUUGCAUAGUAUUUAGUAA,0.00264 ± 0.0037
26,UCCUGGAACAGCUUGCAAUCUAUUUAGUAA,0.00065 ± 0.0091
27,UCCUCCUACAGCUUGCAUACUAAUUAGUUA,0.00185 ± 0.0032
